Results deposited as PubChem BioAssay AID1224830 (NIAID, 2016)
The deposit covers about 18,000 reagents; this is a part drawn at random. About 2,900 of them (16%) count as active. 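Calls are made per well; low scores hint the gene aids the LPS response, high scores that it dampens it.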 A number with no mark means an inactive call. Repeated entries: four replicate wells of each siRNA pool. Reagent sequences are not shown.

- Assay: 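Host factors that control LPS-induced TNF expression in human macrophages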 (primary screen)
- Cells: human THP-1 monocytic leukaemia cells, TNF dual-luciferase reporter clone, PMA-differentiated to macrophage-like cells
- Reagent: siRNA pool against human genes, 50 nM
- Timing: LPS for 4 h, given about 3 days after siRNA transfection
- Treatment: bacterial LPS (TLR4 ligand), 10 ng/ml
- Measured: 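Ratio of firefly to renilla light, scaled to the plate median and expressed as a robust z-score per replicate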
- Direction: TNF reporter robust z-score: higher = stronger TNF reporter response to LPS
- Call rule: 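Each well counts as active if its z-score is over 2.8 or under -1.5; controls are left without a call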

What is on record for FLT3 (fms related receptor tyrosine kinase 3)?
TNF reporter robust z-score: -1.05

With FLT3 (fms related receptor tyrosine kinase 3), what was measured?
TNF reporter robust z-score: -0.39

How did the screen score FLT3 (fms related receptor tyrosine kinase 3)?
TNF reporter robust z-score: -0.18

What is on record for FLT3 (fms related receptor tyrosine kinase 3)?
TNF reporter robust z-score: -0.99

How did the screen score FBP2 (fructose-bisphosphatase 2)?
TNF reporter robust z-score: 1.52

For FBP2 (fructose-bisphosphatase 2), what does the deposit list?
TNF reporter robust z-score: -0.1

With FBP2 (fructose-bisphosphatase 2), how do the results read?
TNF reporter robust z-score: -1.43

How did the screen score FBP2 (fructose-bisphosphatase 2)?
TNF reporter robust z-score: 0.47

For AGER (advanced glycosylation end-product specific receptor), what does the deposit list?
TNF reporter robust z-score: -0.91

With AGER (advanced glycosylation end-product specific receptor), what was measured?
TNF reporter robust z-score: -0.71

What is on record for AGER (advanced glycosylation end-product specific receptor)?
TNF reporter robust z-score: -0.92

With AGER (advanced glycosylation end-product specific receptor), what does the deposit list?
TNF reporter robust z-score: -0.44

What is on record for CFAP68 (cilia and flagella associated protein 68)?
TNF reporter robust z-score: -0.82

With CFAP68 (cilia and flagella associated protein 68), how do the results read?
TNF reporter robust z-score: 0.03

How did the screen score CFAP68 (cilia and flagella associated protein 68)?
TNF reporter robust z-score: -0.59

Which result is listed for CFAP68 (cilia and flagella associated protein 68)?
TNF reporter robust z-score: 1.05

For OR6K2 (olfactory receptor family 6 subfamily K member 2), how do the results read?
TNF reporter robust z-score: 0.14

With OR6K2 (olfactory receptor family 6 subfamily K member 2), how do the results read?
TNF reporter robust z-score: 0.34

For OR6K2 (olfactory receptor family 6 subfamily K member 2), what does the deposit list?
TNF reporter robust z-score: -0.05

With OR6K2 (olfactory receptor family 6 subfamily K member 2), what does the deposit list?
TNF reporter robust z-score: 0.97

What did the screen give for ADGRE2 (adhesion G protein-coupled receptor E2)?
TNF reporter robust z-score: -0.26

With ADGRE2 (adhesion G protein-coupled receptor E2), how do the results read?
TNF reporter robust z-score: 0.22

For ADGRE2 (adhesion G protein-coupled receptor E2), what was measured?
TNF reporter robust z-score: 0.2

For ADGRE2 (adhesion G protein-coupled receptor E2), what does the deposit list?
TNF reporter robust z-score: -0.05

With H6PD (hexose-6-phosphate dehydrogenase/glucose 1-dehydrogenase), what was measured?
TNF reporter robust z-score: 1.25

With H6PD (hexose-6-phosphate dehydrogenase/glucose 1-dehydrogenase), what was measured?
TNF reporter robust z-score: 0.29

What did the screen give for H6PD (hexose-6-phosphate dehydrogenase/glucose 1-dehydrogenase)?
TNF reporter robust z-score: -0.05

What did the screen give for H6PD (hexose-6-phosphate dehydrogenase/glucose 1-dehydrogenase)?
TNF reporter robust z-score: -0.69

What is on record for RAB4B (RAB4B, member RAS oncogene family)?
TNF reporter robust z-score: -0.71

For RAB4B (RAB4B, member RAS oncogene family), what was measured?
TNF reporter robust z-score: -0.87

Which result is listed for RAB4B (RAB4B, member RAS oncogene family)?
TNF reporter robust z-score: -0.8

What is on record for RAB4B (RAB4B, member RAS oncogene family)?
TNF reporter robust z-score: -0.89

Next results:
With ZNF444 (zinc finger protein 444), what does the deposit list?
TNF reporter robust z-score: -1.58 (active)

With ZNF444 (zinc finger protein 444), how do the results read?
TNF reporter robust z-score: -1.74 (active)

For ZNF444 (zinc finger protein 444), what does the deposit list?
TNF reporter robust z-score: -1.57 (active)

What is on record for ZNF444 (zinc finger protein 444)?
TNF reporter robust z-score: -1.63 (active)

What is on record for COX8C (cytochrome c oxidase subunit 8C)?
TNF reporter robust z-score: 0.51

What is on record for COX8C (cytochrome c oxidase subunit 8C)?
TNF reporter robust z-score: 4.19 (active)

With COX8C (cytochrome c oxidase subunit 8C), what was measured?
TNF reporter robust z-score: 3.58 (active)

What did the screen give for COX8C (cytochrome c oxidase subunit 8C)?
TNF reporter robust z-score: 1.1

What is on record for AFM (afamin)?
TNF reporter robust z-score: -0.35

With AFM (afamin), what was measured?
TNF reporter robust z-score: -0.1

What did the screen give for AFM (afamin)?
TNF reporter robust z-score: -0.98

How did the screen score AFM (afamin)?
TNF reporter robust z-score: -0.47

With PPP6R3 (protein phosphatase 6 regulatory subunit 3), what does the deposit list?
TNF reporter robust z-score: -0.71

What is on record for PPP6R3 (protein phosphatase 6 regulatory subunit 3)?
TNF reporter robust z-score: -0.79

How did the screen score PPP6R3 (protein phosphatase 6 regulatory subunit 3)?
TNF reporter robust z-score: 0.94

What did the screen give for PPP6R3 (protein phosphatase 6 regulatory subunit 3)?
TNF reporter robust z-score: 2.01
